No constants are given. Whether binding was seen depends on the method and setting. A result given as binding can be weak or reduced; the word gives no strength.
Target: AtBT2 in the pGBT9 bait vector (Arabidopsis) (UniProt Q94BN0)
Test: two-hybrid; baits in pGBT9, preys in pGAD424, cotransformed into yeast Y2H Gold; growth on SD/-Trp-Leu-His-Ade with X-α-gal

Protein sequences, listed by entry. Tags and fused reporters are not part of them. Lines headed by an entry give the natural chain unless they say otherwise; changes in a name come on top.
UniProt Q94BN0: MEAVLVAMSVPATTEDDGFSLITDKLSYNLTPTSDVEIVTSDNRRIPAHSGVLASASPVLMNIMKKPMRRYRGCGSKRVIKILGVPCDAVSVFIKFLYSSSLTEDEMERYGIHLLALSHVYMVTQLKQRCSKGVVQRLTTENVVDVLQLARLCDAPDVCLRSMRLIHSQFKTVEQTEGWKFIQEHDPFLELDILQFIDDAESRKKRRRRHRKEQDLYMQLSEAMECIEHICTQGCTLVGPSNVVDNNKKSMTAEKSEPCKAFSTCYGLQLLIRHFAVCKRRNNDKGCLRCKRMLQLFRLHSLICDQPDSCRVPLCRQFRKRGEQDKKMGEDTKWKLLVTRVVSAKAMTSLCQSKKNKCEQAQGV
UniProt P48347: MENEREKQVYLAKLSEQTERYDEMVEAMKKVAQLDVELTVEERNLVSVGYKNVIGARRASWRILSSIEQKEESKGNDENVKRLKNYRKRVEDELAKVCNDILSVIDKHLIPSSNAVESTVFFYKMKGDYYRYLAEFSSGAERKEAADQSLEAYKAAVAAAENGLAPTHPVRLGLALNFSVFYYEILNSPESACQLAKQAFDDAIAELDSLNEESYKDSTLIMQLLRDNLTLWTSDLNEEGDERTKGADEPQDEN
UniProt Q96299: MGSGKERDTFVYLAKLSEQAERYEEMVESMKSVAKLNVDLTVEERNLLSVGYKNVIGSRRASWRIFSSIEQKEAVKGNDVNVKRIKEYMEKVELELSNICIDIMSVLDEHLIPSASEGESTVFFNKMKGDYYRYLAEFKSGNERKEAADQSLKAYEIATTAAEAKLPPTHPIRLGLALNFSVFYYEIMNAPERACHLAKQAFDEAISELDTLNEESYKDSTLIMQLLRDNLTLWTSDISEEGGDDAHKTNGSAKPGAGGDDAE
UniProt P48348: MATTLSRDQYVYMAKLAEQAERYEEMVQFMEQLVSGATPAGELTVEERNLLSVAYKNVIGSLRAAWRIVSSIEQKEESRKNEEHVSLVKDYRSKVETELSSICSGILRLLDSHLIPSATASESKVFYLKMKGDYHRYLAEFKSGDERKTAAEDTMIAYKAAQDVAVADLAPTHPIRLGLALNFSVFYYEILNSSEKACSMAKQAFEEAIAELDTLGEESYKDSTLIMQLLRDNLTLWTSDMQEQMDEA

Row | Substance | binding
1 | AtGRF10 in the pGAD424 prey vector (from UniProt P48347) | binds
2 | AtGRF9 in the pGAD424 prey vector (from UniProt Q96299) | binds
3 | AtGRF8 in the pGAD424 prey vector (from UniProt P48348) | binds

From PMC7848006
